Measurements from paper PMC5745004.
No constants are given. Whether binding was seen depends on the method and setting. In cells and extracts the contact can be indirect. Binding can be weak; no strength is given.

The chains behind the UniProt entries cited, without tags or fusion partners. Where a name states a change or a piece, a line headed by the entry shows the natural chain unless it says otherwise.
UniProt P23321: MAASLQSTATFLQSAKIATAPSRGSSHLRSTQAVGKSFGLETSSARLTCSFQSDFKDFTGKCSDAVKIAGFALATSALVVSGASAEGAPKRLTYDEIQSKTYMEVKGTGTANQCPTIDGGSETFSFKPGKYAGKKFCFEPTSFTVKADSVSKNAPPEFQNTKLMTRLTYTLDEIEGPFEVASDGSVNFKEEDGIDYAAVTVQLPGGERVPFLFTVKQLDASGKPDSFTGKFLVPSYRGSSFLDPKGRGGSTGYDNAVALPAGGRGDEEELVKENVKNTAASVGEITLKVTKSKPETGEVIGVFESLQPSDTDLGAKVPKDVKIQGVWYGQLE

Target: PsbO1GFP (PsbO1^1-332GFP, full-length PsbO1 fused to GFP) expressed in Arabidopsis (Arabidopsis) (UniProt P23321)
Test: co-IP; GFP-trap resin with lysate of seven-day-old Arabidopsis seedlings, 4°C 1 h, 25 mM Tris-HCl pH 7.5, 150 mM NaCl, 0.5% NP40; washes with 0.1% NP40; immunoblotting

- binding: binds
B1: HSP90C, endogenous in Arabidopsis seedlings (protein, UniProt Q9SIF2 61-780)
chain: CDAAVAEKETTEEGSGEKFEYQAEVSRLLDLIVHSLYSHKEVFLRELVSNASDALDKLRFLSVTEPSLLGDGGDLEIRIKPDPDNGTITITDTGIGMTKEELIDCLGTIAQSGTSKFLKALKENKDLGADNGLIGQFGVGFYSAFLVAEKVVVSTKSPKSDKQYVWESVADSSSYLIREETDPDNILRRGTQITLYLREDDKYEFAESTRIKNLVKNYSQFVGFPIYTWQEKSRTIEVEEDEPVKEGEEGEPKKKKTTKTEKYWDWELANETKPLWMRNSKEVEKGEYNEFYKKAFNEFLDPLAHTHFTTEGEVEFRSILYIPGMGPLNNEDVTNPKTKNIRLYVKRVFISDDFDGELFPRYLSFVKGVVDSDDLPLNVSREILQESRIVRIMRKRLIRKTFDMIQEISESENKEDYKKFWENFGRFLKLGCIEDTGNHKRITPLLRFFSSKNEEELTSLDDYIENMGENQKAIYYLATDSLKSAKSAPFLEKLIQKDIEVLYLVEPIDEVAIQNLQTYKEKKFVDISKEDLELGDEDEVKDREAKQEFNLLCDWIKQQLGDKVAKVQVSNRLSSSPCVLVSGKFGWSANMERLMKAQALGDTSSLEFMRGRRILEINPDHPIIKDLNAACKNAPESTEATRVVDLLYDTAIISSGFTPDSPAELGNKIYEMMAMAVGGRWGRVEEEEESSTVNEGDDKSGETEVVEPSEVRAESDPWQD
